EPA's CvTdb concentration-time database
The source gives many values for each of these; only a part stands here.

Columns and labels:
Assay in all cases: concentration in plasma after dosing
Mouse [1] = details: 8 h; dosed: 2-Hydroxy-4-methoxybenzophenone; 50 mg/kg; iv; Female; B6C3F1
Mouse [2] = details: 4 h; dosed: 2-Hydroxy-4-methoxybenzophenone; 500 mg/kg; oral; Male; B6C3F1
Mouse [3] = details: 1 h; dosed: 2-Hydroxy-4-methoxybenzophenone; 250 mg/kg; oral; Female; B6C3F1
Mouse [4] = details: 12 h; dosed: 2-Hydroxy-4-methoxybenzophenone; 50 mg/kg; iv; Female; B6C3F1
Rat [5] = details: dosed: 2-Hydroxy-4-methoxybenzophenone, 250 mg/kg, oral, Male, F344
Mouse [6] = details: 4 h; dosed: 2-Hydroxy-4-methoxybenzophenone; 50 mg/kg; iv; Male; B6C3F1
Mouse [7] = details: 5 min; dosed: 2-Hydroxy-4-methoxybenzophenone; 50 mg/kg; iv; Female; B6C3F1
Rat [8] = details: 0.25 h; dosed: 2-Hydroxy-4-methoxybenzophenone; 8 mg/kg; iv; Male; F344
Mouse [9] = details: 6 h; dosed: 2-Hydroxy-4-methoxybenzophenone; 250 mg/kg; oral; Male; B6C3F1
Mouse [10] = details: 1.5 h; dosed: 2-Hydroxy-4-methoxybenzophenone; 50 mg/kg; iv; Female; B6C3F1
Mouse [11] = details: 0.5 h; dosed: 2-Hydroxy-4-methoxybenzophenone; 250 mg/kg; oral; Male; B6C3F1
Rat [12] = details: dosed: 2-Hydroxy-4-methoxybenzophenone, 500 mg/kg, oral, Female, F344
Mouse [13] = details: 6 h; dosed: 2-Hydroxy-4-methoxybenzophenone; 250 mg/kg; oral; Female; B6C3F1
Mouse [14] = details: 8 h; dosed: 2-Hydroxy-4-methoxybenzophenone; 50 mg/kg; iv; Male; B6C3F1
Mouse [15] = details: 4 h; dosed: 2-Hydroxy-4-methoxybenzophenone; 50 mg/kg; iv; Male; B6C3F1; remark: listed apart in the source
Mouse [16] = details: 1.5 h; dosed: 2-Hydroxy-4-methoxybenzophenone; 250 mg/kg; oral; Male; B6C3F1
Mouse [17] = details: 4 h; dosed: 2-Hydroxy-4-methoxybenzophenone; 500 mg/kg; oral; Male; B6C3F1; remark: listed apart in the source
Rat [18] = details: dosed: 2-Hydroxy-4-methoxybenzophenone, 8 mg/kg, iv, Female, F344
Mouse [19] = details: 1 h; dosed: 2-Hydroxy-4-methoxybenzophenone; 50 mg/kg; iv; Male; B6C3F1
Mouse [20] = details: dosed: 2-Hydroxy-4-methoxybenzophenone, 100 mg/kg, oral, Female, B6C3F1
Rat [21] = details: dosed: 2-Hydroxy-4-methoxybenzophenone, 250 mg/kg, oral, Male, F344; remark: listed apart in the source
Mouse [22] = details: 7 h; dosed: 2-Hydroxy-4-methoxybenzophenone; 250 mg/kg; oral; Female; B6C3F1
Rat [23] = details: dosed: 2-Hydroxy-4-methoxybenzophenone, 250 mg/kg, oral, Male, F344; remark: listed apart in the source
Mouse [24] = details: 5 h; dosed: 2-Hydroxy-4-methoxybenzophenone; 250 mg/kg; oral; Male; B6C3F1
Rat [25] = details: dosed: 2-Hydroxy-4-methoxybenzophenone, 100 mg/kg, oral, Female, F344
Mouse [26] = details: 1 h; dosed: 2-Hydroxy-4-methoxybenzophenone; 250 mg/kg; oral; Male; B6C3F1
Mouse [27] = details: 2.5 min; dosed: 2-Hydroxy-4-methoxybenzophenone; 250 mg/kg; oral; Female; B6C3F1
Mouse [28] = details: 7 h; dosed: 2-Hydroxy-4-methoxybenzophenone; 250 mg/kg; oral; Male; B6C3F1
Rat [29] = details: 2.5 min; dosed: 2-Hydroxy-4-methoxybenzophenone; 100 mg/kg; oral; Male; F344
Mouse [30] = details: 6 h; dosed: 2-Hydroxy-4-methoxybenzophenone; 50 mg/kg; iv; Male; B6C3F1
Rat [31] = details: dosed: Perfluorohexanoic Acid, 160 mg/kg, oral, Male, Harlan Sprague Dawley
Rat [32] = details: 1 h; dosed: Perfluorohexanoic Acid; 80 mg/kg; oral; Female; Harlan Sprague Dawley
Rat [33] = details: dosed: Perfluorohexanoic Acid, 40 mg/kg, Female, Harlan Sprague Dawley
Rat [34] = details: 1.5 h; dosed: Perfluorohexanoic Acid; 40 mg/kg; Male; F344
Rat [35] = details: dosed: Perfluorohexanoic Acid, 40 mg/kg, oral, Female, Harlan Sprague Dawley
Rat [36] = details: 1.5 h; dosed: Perfluorohexanoic Acid; 40 mg/kg; Male; F344; remark: listed apart in the source

Q: Which results are given for O=C(c1ccccc1)c1ccc(O)cc1O [2,4-Dihydroxybenzophenone]?
A: concentration in plasma (Mouse [1]): 35.6 ng/mL; concentration in plasma (Mouse [2]): 567 ng/mL; concentration in plasma (Mouse [3]): 248 ng/mL; concentration in plasma (Mouse [4]): 44.1 ng/mL; concentration in plasma (Rat [5]; 1 h): 231 ng/mL; concentration in plasma (Rat [5]; 6 h): 97.9 ng/mL; concentration in plasma (Mouse [6]): 184 ng/mL; concentration in plasma (Mouse [7]): 3780 ng/mL; concentration in plasma (Rat [8]): 64.3 ng/mL; concentration in plasma (Mouse [9]): 257 ng/mL; concentration in plasma (Mouse [10]): 53.8 ng/mL; concentration in plasma (Mouse [11]): 1120 ng/mL; concentration in plasma (Rat [12]; 1 h): 1140 ng/mL; concentration in plasma (Rat [12]; 8 h): 213 ng/mL; concentration in plasma (Mouse [13]): 83.9 ng/mL; concentration in plasma (Mouse [14]): 94.8 ng/mL

Q: How did the concentration in plasma (Mouse [15]) turn out when COc1ccc(C(=O)c2ccccc2)c(O)c1 [2-Hydroxy-4-methoxybenzophenone] was run?
A: Its concentration in plasma is 108 ng/mL.

Q: What about the concentration in plasma (Mouse [16]) of the same compound?
A: Its concentration in plasma is 57.4 ng/mL.

Q: And the concentration in plasma (Mouse [17])?
A: Its concentration in plasma is 88.8 ng/mL.

Q: What about the concentration in plasma (Rat [18]; 1 h) of the same compound?
A: Its concentration in plasma is 183 ng/mL.

Q: And the concentration in plasma (Rat [18]; 12 h)?
A: The concentration in plasma was 5.61 ng/mL.

Q: What about the concentration in plasma (Mouse [19]) of the same compound?
A: The concentration in plasma was 1030 ng/mL.

Q: What about the concentration in plasma (Mouse [20]; 5 min) of the same compound?
A: Its concentration in plasma is 55.5 ng/mL.

Q: And the concentration in plasma (Mouse [20]; 0.5 h)?
A: The concentration in plasma was 51.5 ng/mL.

Q: And the concentration in plasma (Mouse [20]; 0.75 h)?
A: Its concentration in plasma is 23 ng/mL.

Q: And the concentration in plasma (Mouse [20]; 1 h)?
A: The concentration in plasma was 19.4 ng/mL.

Q: What about the concentration in plasma (Mouse [20]; 1.5 h) of the same compound?
A: Its concentration in plasma is 14.3 ng/mL.

Q: And the concentration in plasma (Mouse [20]; 4 h)?
A: The concentration in plasma was 16.3 ng/mL.

Q: And the concentration in plasma (Mouse [20]; 5 h)?
A: Its concentration in plasma is 6.12 ng/mL.

Q: And the concentration in plasma (Mouse [20]; 6 h)?
A: Its concentration in plasma is 28.3 ng/mL.

Q: What about the concentration in plasma (Rat [21]; 1 h) of the same compound?
A: The concentration in plasma was 308 ng/mL.

Q: What about the concentration in plasma (Rat [21]; 6 h) of the same compound?
A: The concentration in plasma was 37.2 ng/mL.

Q: And the concentration in plasma (Mouse [22])?
A: The concentration in plasma was 21 ng/mL.

Q: And the concentration in plasma (Rat [23]; 5 min)?
A: The concentration in plasma was 59.2 ng/mL.

Q: What about the concentration in plasma (Rat [23]; 2 h) of the same compound?
A: Its concentration in plasma is 103 ng/mL.

Q: What about the concentration in plasma (Mouse [24]) of the same compound?
A: Its concentration in plasma is 11.3 ng/mL.

Q: What about the concentration in plasma (Rat [25]; 5 min) of the same compound?
A: The concentration in plasma was 12.7 ng/mL.

Q: And the concentration in plasma (Rat [25]; 2 h)?
A: Its concentration in plasma is 16.6 ng/mL.

Q: What about the concentration in plasma (Mouse [26]) of the same compound?
A: Its concentration in plasma is 125 ng/mL.

Q: And the concentration in plasma (Mouse [27])?
A: The concentration in plasma was 37300 ng/mL.

Q: And the concentration in plasma (Mouse [28])?
A: The concentration in plasma was 15.3 ng/mL.

Q: What about the concentration in plasma (Rat [29]) of the same compound?
A: Its concentration in plasma is 1.56 ng/mL.

Q: And the concentration in plasma (Mouse [30])?
A: Its concentration in plasma is 54.8 ng/mL.

Q: Which results are given for O=C(O)C(F)(F)C(F)(F)C(F)(F)C(F)(F)C(F)(F)F [Perfluorohexanoic Acid]?
A: concentration in plasma (Rat [31]; 1 h): 223000 ng/mL; concentration in plasma (Rat [31]; 24 h): 3440 ng/mL; concentration in plasma (Rat [32]): 78000 ng/mL; concentration in plasma (Rat [33]; 0.5 h): 66300 ng/mL; concentration in plasma (Rat [33]; 12 h): 53.1 ng/mL; concentration in plasma (Rat [34]): 4950 ng/mL; concentration in plasma (Rat [35]; 0.75 h): 27000 ng/mL; concentration in plasma (Rat [35]; 12 h): 135 ng/mL; concentration in plasma (Rat [36]): 54300 ng/mL
